# In article PMC7933334, “The methyltransferase SETD2 couples transcription and splicing by engaging mRNA processing factors through its SHI domain” (Nature Communications, 2021):
# Sequences of proteins named here, by UniProt entry; tags and fusion partners are left off.
# UniProt O75494: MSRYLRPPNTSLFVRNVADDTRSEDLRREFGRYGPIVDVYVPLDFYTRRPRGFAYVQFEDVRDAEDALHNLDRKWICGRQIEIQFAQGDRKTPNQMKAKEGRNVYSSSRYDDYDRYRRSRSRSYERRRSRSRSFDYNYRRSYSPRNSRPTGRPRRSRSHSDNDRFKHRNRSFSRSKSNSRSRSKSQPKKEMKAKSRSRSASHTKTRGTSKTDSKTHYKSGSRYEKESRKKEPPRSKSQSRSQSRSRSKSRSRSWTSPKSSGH
# UniProt P09012: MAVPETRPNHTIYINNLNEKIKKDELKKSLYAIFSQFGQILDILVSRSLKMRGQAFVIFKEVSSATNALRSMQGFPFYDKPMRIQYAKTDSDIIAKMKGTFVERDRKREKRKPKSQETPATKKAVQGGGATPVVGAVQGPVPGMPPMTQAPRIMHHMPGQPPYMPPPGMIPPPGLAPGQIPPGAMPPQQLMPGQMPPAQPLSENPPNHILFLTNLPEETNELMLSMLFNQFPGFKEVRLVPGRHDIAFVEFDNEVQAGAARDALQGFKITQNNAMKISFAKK
# UniProt P26599: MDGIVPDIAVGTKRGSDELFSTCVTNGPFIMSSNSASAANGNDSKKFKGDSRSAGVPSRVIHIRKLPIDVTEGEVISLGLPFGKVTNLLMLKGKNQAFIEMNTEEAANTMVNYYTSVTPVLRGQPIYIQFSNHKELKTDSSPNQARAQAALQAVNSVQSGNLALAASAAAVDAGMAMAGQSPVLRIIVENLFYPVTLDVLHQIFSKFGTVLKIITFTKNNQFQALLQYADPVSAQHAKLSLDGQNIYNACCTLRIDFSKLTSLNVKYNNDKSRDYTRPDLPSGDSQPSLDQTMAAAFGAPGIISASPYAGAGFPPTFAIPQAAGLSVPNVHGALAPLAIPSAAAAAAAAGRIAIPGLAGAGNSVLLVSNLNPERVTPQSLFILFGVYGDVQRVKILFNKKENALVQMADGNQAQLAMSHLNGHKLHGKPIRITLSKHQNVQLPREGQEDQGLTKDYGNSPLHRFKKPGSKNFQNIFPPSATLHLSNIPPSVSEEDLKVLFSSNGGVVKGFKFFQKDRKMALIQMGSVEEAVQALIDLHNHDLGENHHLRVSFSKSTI
# UniProt P11940: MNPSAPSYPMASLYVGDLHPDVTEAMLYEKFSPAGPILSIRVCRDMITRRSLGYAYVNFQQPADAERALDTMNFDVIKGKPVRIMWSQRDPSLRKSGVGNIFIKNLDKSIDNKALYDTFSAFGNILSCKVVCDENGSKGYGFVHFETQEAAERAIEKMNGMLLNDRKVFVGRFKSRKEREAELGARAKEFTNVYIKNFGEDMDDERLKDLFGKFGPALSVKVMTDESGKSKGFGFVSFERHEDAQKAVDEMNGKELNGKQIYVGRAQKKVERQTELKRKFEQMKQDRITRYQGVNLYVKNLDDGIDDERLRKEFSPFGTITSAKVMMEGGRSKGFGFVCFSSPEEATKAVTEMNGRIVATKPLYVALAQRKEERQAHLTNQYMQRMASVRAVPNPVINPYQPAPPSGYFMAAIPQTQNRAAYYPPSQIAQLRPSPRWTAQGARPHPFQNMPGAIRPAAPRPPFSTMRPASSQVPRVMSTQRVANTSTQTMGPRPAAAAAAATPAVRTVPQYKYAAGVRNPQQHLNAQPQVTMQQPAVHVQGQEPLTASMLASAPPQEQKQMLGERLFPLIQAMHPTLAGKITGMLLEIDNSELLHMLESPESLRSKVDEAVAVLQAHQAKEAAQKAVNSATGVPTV
# Read-outs that look alike come from different tables or passages of the source. Results are given in words; binding and its absence hold for the method and conditions named. In cells and extracts the contact can be indirect. Here binding means that the protein was enriched with, or labelled near, the bait; the list need not be complete. For some assays here: Sequences can lack the tags named with a protein.
# T1: Halo-SETD2 1404–2564 (SETD2C) (human) (UniProt Q9BYW2)
# T1 sequence: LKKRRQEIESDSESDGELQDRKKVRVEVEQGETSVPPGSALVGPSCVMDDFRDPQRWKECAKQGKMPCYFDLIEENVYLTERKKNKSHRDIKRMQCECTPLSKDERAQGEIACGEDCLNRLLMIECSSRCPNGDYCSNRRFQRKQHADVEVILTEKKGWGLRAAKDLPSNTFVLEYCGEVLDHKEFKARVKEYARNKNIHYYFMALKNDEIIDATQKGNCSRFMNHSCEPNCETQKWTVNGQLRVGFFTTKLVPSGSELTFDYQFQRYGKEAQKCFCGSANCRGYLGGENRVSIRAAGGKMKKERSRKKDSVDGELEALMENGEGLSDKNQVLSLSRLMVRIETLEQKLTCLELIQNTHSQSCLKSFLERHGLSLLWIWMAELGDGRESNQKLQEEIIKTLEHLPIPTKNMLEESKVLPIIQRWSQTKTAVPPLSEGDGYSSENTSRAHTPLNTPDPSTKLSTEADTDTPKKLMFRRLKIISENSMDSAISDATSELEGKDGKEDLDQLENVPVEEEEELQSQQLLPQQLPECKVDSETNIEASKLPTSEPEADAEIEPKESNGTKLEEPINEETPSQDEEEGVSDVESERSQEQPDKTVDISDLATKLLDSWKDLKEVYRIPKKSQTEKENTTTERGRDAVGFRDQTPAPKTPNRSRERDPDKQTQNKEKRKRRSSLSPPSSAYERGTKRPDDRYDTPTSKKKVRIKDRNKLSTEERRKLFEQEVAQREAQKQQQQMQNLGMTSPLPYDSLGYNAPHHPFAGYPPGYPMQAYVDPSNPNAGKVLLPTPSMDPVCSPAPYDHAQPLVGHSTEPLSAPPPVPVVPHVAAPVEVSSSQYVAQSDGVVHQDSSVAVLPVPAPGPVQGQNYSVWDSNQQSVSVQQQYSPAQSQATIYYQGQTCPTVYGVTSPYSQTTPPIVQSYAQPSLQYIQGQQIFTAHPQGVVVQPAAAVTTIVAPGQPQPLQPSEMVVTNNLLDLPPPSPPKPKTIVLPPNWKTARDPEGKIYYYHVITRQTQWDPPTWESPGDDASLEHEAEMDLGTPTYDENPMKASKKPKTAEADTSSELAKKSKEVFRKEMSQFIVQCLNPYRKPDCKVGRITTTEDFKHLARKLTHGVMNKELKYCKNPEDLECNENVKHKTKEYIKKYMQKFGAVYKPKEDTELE
# T2: Halo-tagged SETD2 fragment 1964–2263 (human) (UniProt Q9BYW2)
# T2 sequence: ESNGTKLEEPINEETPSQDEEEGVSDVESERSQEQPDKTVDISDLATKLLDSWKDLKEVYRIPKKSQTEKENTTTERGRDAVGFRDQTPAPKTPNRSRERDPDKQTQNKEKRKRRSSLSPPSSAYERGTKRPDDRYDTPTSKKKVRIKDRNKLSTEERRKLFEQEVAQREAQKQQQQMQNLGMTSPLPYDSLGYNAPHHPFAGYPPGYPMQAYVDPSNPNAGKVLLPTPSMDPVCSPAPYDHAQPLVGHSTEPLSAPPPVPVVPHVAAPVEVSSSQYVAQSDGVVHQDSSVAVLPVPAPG
# T3: Halo-tagged SETD2 fragment 2164–2213 (human) (UniProt Q9BYW2)
# T3 sequence: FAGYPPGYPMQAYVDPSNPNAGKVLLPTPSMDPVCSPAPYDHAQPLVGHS
# T4: Halo-SETD2 2114–2263 (human) (UniProt Q9BYW2)
# T4 sequence: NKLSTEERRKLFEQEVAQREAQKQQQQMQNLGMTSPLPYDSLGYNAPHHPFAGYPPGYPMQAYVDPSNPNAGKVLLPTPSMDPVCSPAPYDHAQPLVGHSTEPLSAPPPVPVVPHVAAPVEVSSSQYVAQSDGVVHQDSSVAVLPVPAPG
# T5: Halo-hnRNP L 162–321 (human) (UniProt P14866)
# T5 sequence: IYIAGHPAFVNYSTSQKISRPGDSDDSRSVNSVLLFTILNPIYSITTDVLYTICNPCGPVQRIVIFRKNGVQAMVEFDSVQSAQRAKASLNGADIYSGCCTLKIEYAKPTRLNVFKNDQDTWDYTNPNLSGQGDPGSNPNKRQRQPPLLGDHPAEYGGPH
# B1: hnRNP L (endogenous) (protein, UniProt P14866 1-589)
# chain: MSRRLLPRAEKRRRRLEQRQQPDEQRRRSGAMVKMAAAGGGGGGGRYYGGGSEGGRAPKRLKTDNAGDQHGGGGGGGGGAGAAGGGGGGENYDDPHKTPASPVVHIRGLIDGVVEADLVEALQEFGPISYVVVMPKKRQALVEFEDVLGACNAVNYAADNQIYIAGHPAFVNYSTSQKISRPGDSDDSRSVNSVLLFTILNPIYSITTDVLYTICNPCGPVQRIVIFRKNGVQAMVEFDSVQSAQRAKASLNGADIYSGCCTLKIEYAKPTRLNVFKNDQDTWDYTNPNLSGQGDPGSNPNKRQRQPPLLGDHPAEYGGPHGGYHSHYHDEGYGPPPPHYEGRRMGPPVGGHRRGPSRYGPQYGHPPPPPPPPEYGPHADSPVLMVYGLDQSKMNCDRVFNVFCLYGNVEKVKFMKSKPGAAMVEMADGYAVDRAITHLNNNFMFGQKLNVCVSKQPAIMPGQSYGLEDGSCSYKDFSESRNNRFSTPEQAAKNRIQHPSNVLHFFNAPLEVTEENFFEICDELGVKRPSSVKVFSGKSERSSSGLLEWESKSDALETLGFLNHYQMKNPNGPYPYTLKLCFSTAQHAS
# B2: Med23 (protein, UniProt Q9ULK4 1-1368)
# chain: METQLQSIFEEVVKTEVIEEAFPGMFMDTPEDEKTKLISCLGAFRQFWGGLSQESHEQCIQWIVKFIHGQHSPKRISFLYDCLAMAVETGLLPPRLVCESLINSDTLEWERTQLWALTFKLVRKIIGGVDYKGVRDLLKVILEKILTIPNTVSSAVVQQLLAAREVIAYILERNACLLPAYFAVTEIRKLYPEGKLPHWLLGNLVSDFVDTFRPTARINSICGRCSLLPVVNNSGAICNSWKLDPATLRFPLKGLLPYDKDLFEPQTALLRYVLEQPYSRDMVCNMLGLNKQHKQRCPVLEDQLVDLVVYAMERSETEEKFDDGGTSQLLWQHLSSQLIFFVLFQFASFPHMVLSLHQKLAGRGLIKGRDHLMWVLLQFISGSIQKNALADFLPVMKLFDLLYPEKEYIPVPDINKPQSTHAFAMTCIWIHLNRKAQNDNSKLQIPIPHSLRLHHEFLQQSLRNKSLQMNDYKIALLCNAYSTNSECFTLPMGALVETIYGNGIMRIPLPGTNCMASGSITPLPMNLLDSLTVHAKMSLIHSIATRVIKLAHAKSSVALAPALVETYSRLLVYMEIESLGIKGFISQLLPTVFKSHAWGILHTLLEMFSYRMHHIQPHYRVQLLSHLHTLAAVAQTNQNQLHLCVESTALRLITALGSSEVQPQFTRFLSDPKTVLSAESEELNRALILTLARATHVTDFFTGSDSIQGTWCKDILQTIMSFTPHNWASHTLSCFPGPLQAFFKQNNVPQESRFNLKKNVEEEYRKWKSMSNENDIITHFSMQGSPPLFLCLLWKMLLETDHINQIGYRVLERIGARALVAHVRTFADFLVYEFSTSAGGQQLNKCIEILNDMVWKYNIVTLDRLILCLAMRSHEGNEAQVCYFIIQLLLLKPNDFRNRVSDFVKENSPEHWLQNDWHTKHMNYHKKYPEKLYFEGLAEQVDPPVQIQSPYLPIYFGNVCLRFLPVFDIVIHRFLELLPVSKSLETLLDHLGGLYKFHDRPVTYLYNTLHYYEMHLRDRAFLKRKLVHAIIGSLKDNRPQGWCLSDTYLKCAMNAREENPWVPDDTYYCRLIGRLVDTMAGKSPGPFPNCDWRFNEFPNPAAHALHVTCVELMALAVSGKEVGNALLNVVLKSQPLVPRENITAWMNAIGLIITALPEPYWIVLHDRIVSVISSPSLTSETEWVGYPFRLFDFTACHQSYSEMSCSYTLALAHAVWHHSSIGQLSLIPKFLTEVLLPIVKTEFQLLYVYHLVGPFLQRFQQERTRCMIEIGVAFYDMLLNVDQCSTHLNYMDPICDFLYHMKYMFTGDSVKEQVEKIICNLKPALKLRLRFITHISKMEPAAVPPQAMNSGSPAPQSNQVPVSLPVTQ
# B3: serine/arginine-rich splicing factor 3 (protein, UniProt P84103 1-164)
# chain: MHRDSCPLDCKVYVGNLGNNGNKTELERAFGYYGPLRSVWVARNPPGFAFVEFEDPRDAADAVRELDGRTLCGCRVRVELSNGEKRSRNRGPPPSWGRRPRDDYRRRSPPPRRRSPRRRSFSRSRSRSLSRDRRRERSLSRERNHKPSRSFSRSRSRSRSNERK
# How the values were obtained:
# Assay in all cases: affinity purification with mass spectrometry; Halo-tagged bait expressed in 293T; extract (150 mM NaCl, 1% Triton X-100, diluted 1:3) on Magne HaloTag beads overnight at 4 °C, wash with 300 mM NaCl, elution with AcTEV; MudPIT of endogenous co-purified proteins against a mock; lysate with or without RNase where stated; SETD2C also from cells treated with siRNA to hnRNP L
# [1] = target: T1, Halo-SETD2 1404–2564 (SETD2C) (human)
# [2] = target: T2, Halo-tagged SETD2 fragment 1964–2263 (human)
# [3] = target: T1, Halo-SETD2 1404–2564 (SETD2C) (human); remark: listed apart in the source
# [4] = target: T3, Halo-tagged SETD2 fragment 2164–2213 (human)
# [5] = target: T4, Halo-SETD2 2114–2263 (human)
# [6] = target: Halo-FLAG-SETD2CΔSRI (human) (UniProt Q9BYW2)
# [7] = target: T5, Halo-hnRNP L 162–321 (human)
molecule,measurement,setting,value
serine/arginine-rich splicing factor 10 (from UniProt O75494 1-262),binding,[1],binds
U1 small nuclear ribonucleoprotein A (from UniProt P09012 1-282),binding,[1],binds
polypyrimidine tract binding protein 1 (from UniProt P26599 1-557),binding,[1],binds
polyadenylate-binding protein 1 (from UniProt P11940 1-636),binding,[1],binds
B1,binding,[2],binds
same,binding,[3],binds
same,binding,[4],binds
same,binding,[5],binds
same,binding,[6],binds
B2,binding,[7],binds
B3,binding,[3],binds
